# The supplement of paper PMC3334620
# Whole data set: some 33,000 sequences, median “E-score (-0.5 to 0.5)” near -0.0034, cut for the highest 2% near 0.25. The list shows a part of the results.
# Biological target: T1, Yap3 (UniProt P38749)
# T1 sequence: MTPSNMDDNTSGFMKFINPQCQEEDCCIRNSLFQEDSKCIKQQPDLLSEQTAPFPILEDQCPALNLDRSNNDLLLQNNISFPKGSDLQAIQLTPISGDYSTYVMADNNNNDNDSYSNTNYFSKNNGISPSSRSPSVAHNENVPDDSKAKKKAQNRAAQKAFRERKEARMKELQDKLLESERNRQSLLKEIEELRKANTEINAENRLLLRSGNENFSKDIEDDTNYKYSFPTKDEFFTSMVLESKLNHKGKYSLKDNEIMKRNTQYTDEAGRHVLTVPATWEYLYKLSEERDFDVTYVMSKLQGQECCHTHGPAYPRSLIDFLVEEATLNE
# Assay: PBM E-score (8-mer binding enrichment) (E-score (-0.5 to 0.5)); higher = stronger / more preferred TF binding
# Settings: protein concentration: 100 nM; construct: GST-full length
# Summary of the method: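 Bound GST-tagged yeast transcription factors, applied at about 100-200 nM to double-stranded universal all-10-mer Agilent arrays, were detected with fluorescent anti-GST. Scans were normalised with masliner. A modified Wilcoxon-Mann-Whitney statistic, the E-score, was assigned to each ungapped eight-base word pooled with its reverse complement by the Universal PBM Analysis Suite.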
row,Sequence,PBM E-score
1,TCGAGCCA,0.0206
2,ATCCACTC,0.0328
3,ATCATTCC,0.1
4,CCTCAACG,-0.243
5,GACCCCCA,-0.423
6,CTACAAAC,0.11
7,GAATCCGA,-0.0133
8,GATGTGGA,0.092
9,AGGTGAAC,-0.0219
10,ACCTAACT,0.0547
11,CTTCGTAC,0.067
12,GGCTATAC,-0.125
13,AACTTTTG,0.113
14,AATCTCGC,0.0766
15,AAGCACAA,0.198
16,CAGCATTA,0.0879
17,CTAGCCAG,-0.0936
18,AAGGAGAG,-0.28
19,GCAATTAA,0.112
20,CTATACTA,0.16
21,AGACCAAA,-0.0495
22,ATGTTCGG,0.118
23,ACGTGATC,0.157
24,CAAACATA,0.0864
25,ACAAATAA,0.225

row,Sequence,PBM E-score
1,CGCTGGGC,-0.257
2,CAGTCGGG,-0.115
3,TACGCACA,0.118
4,CCACTCGC,0.0481
5,ATGCAGGG,-0.159
6,AAAGCTAA,0.0273
7,GGACCTGA,-0.175
8,CGATCGCA,0.175
9,AGGTCCGC,-0.239
10,TCTCAGCA,0.0139
11,ACAAATTG,0.173
12,CCTGGTTA,-0.0505
13,ATATCCGG,0.0452
14,TGGCCACA,-0.0477
15,GCTATCAC,0.179
16,GTACGCGA,0.0761
17,CAAAGACA,0.138
18,ACGTCCTA,0.00661
19,GAACGCAC,0.0357
20,AGGATGCA,-0.0466
21,AGTAATCA,0.117
22,ATCCGTTA,0.284
23,GAACCGGA,0.0493
24,TGGGCGAA,-0.0318
25,CGACCGAC,0.0322

row,Sequence,PBM E-score
1,TATTCGGA,0.194
2,AGGGGGAA,-0.111
3,AATCTAGT,0.142
4,AACTACAG,0.0316
5,GAGCAAGC,-0.15
6,TCAGAAAA,-0.0671
7,CCCCTCTA,-0.286
8,CCTGCTGA,0.132
9,AAGGTCAC,-0.0209
10,ACTTCTTC,0.0436
11,CTCTGCCC,-0.0627
12,AAGGACTA,-0.136
13,GCCAGGGC,-0.324
14,AGCGGGCC,-0.101
15,CGCCCTCC,-0.289
16,TACGGTGA,0.164
17,CACCAGGA,-0.0124
18,AAGGTTGA,0.193
19,CCGAACAA,0.18
20,CGTTCACA,0.126
21,CTCAGCAG,-0.0565
22,ATTCAGGG,-0.018
23,CGCATTGA,0.125
24,CTCTGAAC,-0.0851
25,CGGATGAC,0.0307

# Fetched one by one from the entries so far:
row,Sequence,PBM E-score
11,CTCTGCCC,-0.0627
17,CACCAGGA,-0.0124

# (cont.)

row,Sequence,PBM E-score
1,GAGTTTAA,0.217
2,GACCCTAA,-0.136
3,CGTATTAC,0.231
4,CGCTTGAC,-0.028
5,AAAAGACT,-0.114
6,AATGTCAT,0.0551
7,GACGAGAC,0.0175
8,CGCTCTAA,0.00238
9,CGCGACTA,0.0901
10,TATGTTAA,0.232
11,GGCCCTGA,-0.14
12,GTGACGGA,-0.0488
13,CAGCCGGG,-0.247
14,ATACAGCA,0.0699
15,TACTTGGA,0.111
16,CAAGGAAA,0.103
17,ATCGGACG,-0.0989
18,GGTGAAGA,-0.0219
19,ACTAGCGG,-0.124
20,GTTTTCCA,0.213
21,ATGCTCCC,-0.137
22,TAGAGTCA,-0.25
23,ACCTTTCC,0.0396
24,ATTAGTTC,0.118
25,CCCACTCG,-0.298

row,Sequence,PBM E-score
1,CGAGGGGC,-0.341
2,CATATATG,0.126
3,CGCAGGAC,-0.149
4,CGCCAATC,0.0304
5,ACCGTCAG,-0.111
6,CAAACTCA,0.133
7,TAGGGCCA,-0.122
8,AAAAGTTG,0.0288
9,TAGGCTGA,0.0209
10,AGACTTAT,-0.0527
11,GCACCCGA,-0.172
12,AACGTGCT,-0.0425
13,AAATAATA,0.307
14,AGTATGCG,-0.09
15,CCCCGCCA,0.0511
16,AGGCGTCG,-0.00776
17,CAGTTATG,0.161
18,AGCAGGGG,-0.224
19,ATGGTGCC,-0.196
20,ACCAACGG,-0.22
21,AGCGGTTG,-0.0583
22,CGGCAGAC,-0.254
23,TAAATACA,0.192
24,TCGTGAAA,-0.11
25,GGACCCGA,-0.136

# A run of entries taken from the entries so far, as a working copy:
row,Sequence,PBM E-score
8,AAAAGTTG,0.0288
9,TAGGCTGA,0.0209
10,AGACTTAT,-0.0527
11,GCACCCGA,-0.172
12,AACGTGCT,-0.0425
13,AAATAATA,0.307
14,AGTATGCG,-0.09

# Some of the entries so far, tab-delimited.
row	Sequence	PBM E-score
22	CGGCAGAC	-0.254
23	TAAATACA	0.192
24	TCGTGAAA	-0.11

# Additional entries

row,Sequence,PBM E-score
1,GTGACAAA,0.116
2,AACCTTAG,-0.172
3,AACTCTCG,0.00885
4,TGTGCTAA,0.0881
5,GGACTTTA,-0.208
6,AGCGGCTG,-0.159
7,GAAAGGGA,-0.17
8,GCACTAAC,0.0358
9,CACAGTCC,-0.14
10,AATTTTGT,0.145
11,AGCACGAC,-0.0788
12,ATCCTGGC,0.00893
13,AATTCAGC,0.006
14,CTGTGCTC,0.118
15,GAACTCAA,-0.127
16,CGACTTGA,0.0954
17,ACGAATGA,0.122
18,GGCTACAA,0.0593
19,TGACAGCA,0.00105
20,CACACTAG,-0.0707
21,ACGACGTG,0.018
22,GGCGTGAA,-0.168
23,ACTGAGCG,-0.152
24,AAGTCCAC,-0.145
25,GCGTATCA,0.0743

row,Sequence,PBM E-score
1,CAGCGGCA,-0.116
2,AATCGGAC,0.00628
3,CCACTGTA,0.0978
4,GAATTGAA,0.194
5,CTAGCCTC,-0.148
6,ACCAGTGA,-0.0481
7,CAGGCGAG,-0.189
8,AGGACATC,0.0832
9,TAATGAAA,0.218
10,TACTTACA,0.0647
11,CGCGCAGA,0.182
12,ATGGTGGG,-0.224
13,CCGCCGTC,0.0337
14,GCCCTACC,-0.276
15,ATGGAGCA,-0.0578
16,GTTCAAGA,-0.0731
17,ATCGGAAA,0.112
18,GCCTACCC,-0.177
19,GCGGCATA,0.0347
20,AACTCCTC,-0.177
21,ACCCAAAA,0.0452
22,GGTACGTA,0.0404
23,CAAGGCAA,-0.0302
24,AGCAGACT,0.15
25,TATATACA,0.226

row,Sequence,PBM E-score
1,ACCCGGCG,-0.303
2,CCATATCC,0.182
3,AGGGCGAT,-0.234
4,CGTGCGAA,-0.02
5,GCCTTCGC,-0.0494
6,ACGGGAAA,0.123
7,GACAAGGC,-0.177
8,ACAGGCTG,-0.123
9,GCTCGAGC,0.17
10,AATAACTG,0.138
11,CACACCCC,-0.333
12,ACATACGT,-0.00116
13,CAGACTGA,-0.118
14,CTATTTCC,0.243
15,CGCCTGAA,0.0486
16,ACAATGAC,-0.0505
17,GAATTTAC,0.187
18,ATAGGTCA,0.107
19,AGGGGGTG,-0.348
20,AGAAGTGG,-0.0921
21,TATTAACA,0.23
22,CACGATGG,-0.223
23,GCACCTAA,-0.0658
24,AGTCGGTG,-0.119
25,AATGCGAG,0.24

row,Sequence,PBM E-score
1,TGACATAA,0.3
2,ACCATTAT,0.075
3,CGCGTCGC,-0.0516
4,AAGGTAAA,0.208
5,AACAATCT,0.072
6,ACCGCAGG,-0.216
7,CATGTGAC,-0.179
8,AACATAGA,0.149
9,AACTTCTT,0.0422
10,GGACTAGA,-0.0685
11,ACGCGAAT,0.106
12,TAAACGAA,0.2
13,ACATGTAT,0.262
14,CGCAAGCA,-0.0684
15,CGCCCTCA,-0.0805
16,ATGAAGGC,0.0022
17,CTTAACCA,0.129
18,AGATGACC,-0.00971
19,ACGCGGCA,-0.0121
